The list shows a part of the results.
Legend:
Assay in all cases: log2 fold change, soluble protein after heating vs DMSO (PISA); higher = thermal stabilisation; K562 lysate, 10 uM; active = over 0.2 and 3.5 SD of the protein, either way, in both replicates (recomputed)
[1] = compound: CN1CC[C@H](c2c(O)cc(O)c3c(=O)cc(-c4ccccc4Cl)oc23)[C@H](O)C1 [alvocidib]
Outline: (§1)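 Values give the log-two fold change in thermal stability against solvent controls, from duplicates. Crude K562 extract at 1 mg/mL protein, made by dounce homogenisation in PBS pH 7.4 with 1 mM MgCl2, was treated with 10 μM compound for 30 min. After 3 min heating across 48°C-58°C, aliquots were pooled, adjusted to 0.5% NP-40 at 4°C and centrifuged at 21,000xg for 90 min. The supernatant was measured by TMTpro 16plex LC-MS/MS with channel sums equalised.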

Chains of the proteins cited; added tags and fusions are not shown. Lines headed by an entry give the natural chain unless they say otherwise; changes in a name come on top.
UniProt Q96JX3: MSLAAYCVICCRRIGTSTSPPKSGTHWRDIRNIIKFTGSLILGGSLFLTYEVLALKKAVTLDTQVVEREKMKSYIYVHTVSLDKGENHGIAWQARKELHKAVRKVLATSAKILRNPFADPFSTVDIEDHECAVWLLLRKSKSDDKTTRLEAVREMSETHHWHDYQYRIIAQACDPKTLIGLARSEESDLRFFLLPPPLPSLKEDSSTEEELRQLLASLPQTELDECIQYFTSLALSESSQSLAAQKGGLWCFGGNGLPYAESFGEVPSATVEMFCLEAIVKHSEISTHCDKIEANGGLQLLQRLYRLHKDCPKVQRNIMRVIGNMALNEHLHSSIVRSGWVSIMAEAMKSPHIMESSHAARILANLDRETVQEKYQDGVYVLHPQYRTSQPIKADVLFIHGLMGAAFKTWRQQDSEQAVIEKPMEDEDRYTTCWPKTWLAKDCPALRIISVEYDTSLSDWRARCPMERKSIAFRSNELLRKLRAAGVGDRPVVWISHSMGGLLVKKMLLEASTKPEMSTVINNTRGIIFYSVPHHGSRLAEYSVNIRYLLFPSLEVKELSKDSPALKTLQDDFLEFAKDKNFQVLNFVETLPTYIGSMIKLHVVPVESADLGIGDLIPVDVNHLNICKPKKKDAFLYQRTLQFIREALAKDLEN
UniProt Q9Y6P5: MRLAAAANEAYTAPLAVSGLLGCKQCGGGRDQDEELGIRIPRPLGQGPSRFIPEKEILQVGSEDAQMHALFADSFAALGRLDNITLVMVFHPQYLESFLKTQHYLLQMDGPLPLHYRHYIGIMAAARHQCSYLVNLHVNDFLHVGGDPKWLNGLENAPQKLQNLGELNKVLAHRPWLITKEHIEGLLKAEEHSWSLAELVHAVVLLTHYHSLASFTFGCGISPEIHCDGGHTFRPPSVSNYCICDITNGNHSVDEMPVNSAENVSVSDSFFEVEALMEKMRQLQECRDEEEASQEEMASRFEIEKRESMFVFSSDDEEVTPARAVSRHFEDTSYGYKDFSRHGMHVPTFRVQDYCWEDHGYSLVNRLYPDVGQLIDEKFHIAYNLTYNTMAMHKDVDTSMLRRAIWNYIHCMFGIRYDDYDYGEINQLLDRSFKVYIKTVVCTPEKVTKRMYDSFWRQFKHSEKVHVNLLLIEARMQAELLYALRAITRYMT
UniProt Q8N196: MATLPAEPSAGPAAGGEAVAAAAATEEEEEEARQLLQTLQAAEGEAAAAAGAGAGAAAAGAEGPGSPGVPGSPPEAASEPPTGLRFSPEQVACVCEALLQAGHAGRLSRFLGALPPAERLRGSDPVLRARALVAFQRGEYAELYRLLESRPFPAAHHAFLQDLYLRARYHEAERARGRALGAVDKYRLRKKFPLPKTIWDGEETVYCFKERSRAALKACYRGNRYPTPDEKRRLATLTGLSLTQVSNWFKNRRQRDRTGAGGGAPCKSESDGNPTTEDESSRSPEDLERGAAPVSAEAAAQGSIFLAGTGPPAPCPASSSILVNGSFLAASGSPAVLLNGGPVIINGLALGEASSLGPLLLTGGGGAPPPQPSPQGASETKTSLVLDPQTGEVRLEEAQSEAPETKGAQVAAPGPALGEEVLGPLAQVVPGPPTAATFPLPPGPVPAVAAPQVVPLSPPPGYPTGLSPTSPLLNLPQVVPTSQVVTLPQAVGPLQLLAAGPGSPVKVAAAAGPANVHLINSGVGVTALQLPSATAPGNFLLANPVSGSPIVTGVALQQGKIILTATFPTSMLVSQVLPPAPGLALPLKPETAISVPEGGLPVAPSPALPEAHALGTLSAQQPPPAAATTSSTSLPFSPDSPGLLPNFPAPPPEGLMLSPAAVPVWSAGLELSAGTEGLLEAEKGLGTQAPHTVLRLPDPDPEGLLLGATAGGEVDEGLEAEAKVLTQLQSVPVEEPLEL
UniProt Q6IA17: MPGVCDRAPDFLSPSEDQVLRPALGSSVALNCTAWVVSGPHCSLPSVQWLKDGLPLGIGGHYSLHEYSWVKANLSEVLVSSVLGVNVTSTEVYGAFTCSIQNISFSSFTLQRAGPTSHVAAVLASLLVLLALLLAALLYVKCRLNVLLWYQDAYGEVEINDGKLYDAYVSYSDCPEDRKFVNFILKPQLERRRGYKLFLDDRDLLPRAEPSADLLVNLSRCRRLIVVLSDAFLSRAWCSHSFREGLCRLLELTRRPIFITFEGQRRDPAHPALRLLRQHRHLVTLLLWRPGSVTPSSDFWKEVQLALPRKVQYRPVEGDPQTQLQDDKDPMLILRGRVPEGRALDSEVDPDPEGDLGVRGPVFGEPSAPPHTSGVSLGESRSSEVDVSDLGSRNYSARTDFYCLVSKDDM
UniProt O60779: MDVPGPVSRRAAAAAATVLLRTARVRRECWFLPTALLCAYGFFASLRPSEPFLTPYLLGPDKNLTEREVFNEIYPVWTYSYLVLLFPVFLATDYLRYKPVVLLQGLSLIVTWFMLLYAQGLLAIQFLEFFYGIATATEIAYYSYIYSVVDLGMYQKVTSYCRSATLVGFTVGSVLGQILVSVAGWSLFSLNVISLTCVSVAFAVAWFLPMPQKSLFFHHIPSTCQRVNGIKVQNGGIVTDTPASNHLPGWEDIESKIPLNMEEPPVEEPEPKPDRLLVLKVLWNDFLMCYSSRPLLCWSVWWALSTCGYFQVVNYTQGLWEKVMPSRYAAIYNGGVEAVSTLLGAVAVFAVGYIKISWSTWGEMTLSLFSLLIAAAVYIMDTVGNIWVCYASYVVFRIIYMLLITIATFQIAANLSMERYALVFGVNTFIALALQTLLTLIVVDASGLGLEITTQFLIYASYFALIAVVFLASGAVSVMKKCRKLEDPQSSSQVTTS
UniProt Q96HU1: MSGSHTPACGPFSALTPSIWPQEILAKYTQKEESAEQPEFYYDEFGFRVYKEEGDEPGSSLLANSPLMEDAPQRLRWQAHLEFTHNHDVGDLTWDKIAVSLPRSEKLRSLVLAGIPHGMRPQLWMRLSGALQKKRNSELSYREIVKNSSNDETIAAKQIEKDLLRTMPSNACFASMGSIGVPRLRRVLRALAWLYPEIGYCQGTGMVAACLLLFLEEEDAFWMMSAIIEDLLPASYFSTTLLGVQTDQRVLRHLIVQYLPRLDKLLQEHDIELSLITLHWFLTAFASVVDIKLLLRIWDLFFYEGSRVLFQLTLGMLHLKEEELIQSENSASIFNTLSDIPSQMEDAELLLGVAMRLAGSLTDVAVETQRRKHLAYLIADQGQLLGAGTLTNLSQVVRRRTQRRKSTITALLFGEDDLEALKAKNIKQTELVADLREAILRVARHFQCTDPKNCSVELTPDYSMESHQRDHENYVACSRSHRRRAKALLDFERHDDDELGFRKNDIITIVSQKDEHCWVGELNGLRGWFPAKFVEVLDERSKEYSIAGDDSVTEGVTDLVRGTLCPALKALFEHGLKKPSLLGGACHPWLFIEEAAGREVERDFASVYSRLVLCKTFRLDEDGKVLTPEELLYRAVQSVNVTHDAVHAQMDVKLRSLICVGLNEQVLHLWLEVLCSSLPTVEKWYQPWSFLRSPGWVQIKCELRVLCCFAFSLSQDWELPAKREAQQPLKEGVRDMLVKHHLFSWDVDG
UniProt Q8IW75: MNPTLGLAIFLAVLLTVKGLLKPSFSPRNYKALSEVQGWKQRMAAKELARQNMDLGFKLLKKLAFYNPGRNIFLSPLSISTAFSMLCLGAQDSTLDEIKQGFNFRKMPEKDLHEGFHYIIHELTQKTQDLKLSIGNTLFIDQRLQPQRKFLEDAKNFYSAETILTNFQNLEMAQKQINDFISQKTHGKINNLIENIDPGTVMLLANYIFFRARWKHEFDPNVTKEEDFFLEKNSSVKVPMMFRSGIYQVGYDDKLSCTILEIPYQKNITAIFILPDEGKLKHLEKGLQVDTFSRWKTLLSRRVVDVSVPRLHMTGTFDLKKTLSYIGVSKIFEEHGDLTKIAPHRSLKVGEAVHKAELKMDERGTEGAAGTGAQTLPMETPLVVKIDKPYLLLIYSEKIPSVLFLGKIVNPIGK
UniProt Q01105, whole entry, looked up: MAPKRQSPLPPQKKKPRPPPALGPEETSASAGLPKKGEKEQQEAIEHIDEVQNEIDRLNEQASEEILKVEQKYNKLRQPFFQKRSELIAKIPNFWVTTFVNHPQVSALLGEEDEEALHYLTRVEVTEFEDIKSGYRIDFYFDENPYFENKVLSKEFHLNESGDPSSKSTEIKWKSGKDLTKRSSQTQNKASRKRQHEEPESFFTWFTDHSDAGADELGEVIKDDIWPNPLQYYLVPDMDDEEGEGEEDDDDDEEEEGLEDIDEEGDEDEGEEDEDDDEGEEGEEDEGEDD
UniProt Q96EP9: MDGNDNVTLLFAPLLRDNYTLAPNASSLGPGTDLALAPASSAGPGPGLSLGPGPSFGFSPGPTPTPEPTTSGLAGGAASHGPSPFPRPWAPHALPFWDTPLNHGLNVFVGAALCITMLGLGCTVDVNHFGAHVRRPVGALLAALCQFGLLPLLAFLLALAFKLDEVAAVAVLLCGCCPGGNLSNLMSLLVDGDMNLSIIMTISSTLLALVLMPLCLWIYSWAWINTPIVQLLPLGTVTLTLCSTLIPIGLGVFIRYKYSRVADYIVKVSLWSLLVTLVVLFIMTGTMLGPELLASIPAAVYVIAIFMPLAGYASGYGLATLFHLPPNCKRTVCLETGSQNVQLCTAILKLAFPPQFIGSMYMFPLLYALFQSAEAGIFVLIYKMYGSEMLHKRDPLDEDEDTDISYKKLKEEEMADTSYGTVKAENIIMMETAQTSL
UniProt Q15477, whole entry, looked up: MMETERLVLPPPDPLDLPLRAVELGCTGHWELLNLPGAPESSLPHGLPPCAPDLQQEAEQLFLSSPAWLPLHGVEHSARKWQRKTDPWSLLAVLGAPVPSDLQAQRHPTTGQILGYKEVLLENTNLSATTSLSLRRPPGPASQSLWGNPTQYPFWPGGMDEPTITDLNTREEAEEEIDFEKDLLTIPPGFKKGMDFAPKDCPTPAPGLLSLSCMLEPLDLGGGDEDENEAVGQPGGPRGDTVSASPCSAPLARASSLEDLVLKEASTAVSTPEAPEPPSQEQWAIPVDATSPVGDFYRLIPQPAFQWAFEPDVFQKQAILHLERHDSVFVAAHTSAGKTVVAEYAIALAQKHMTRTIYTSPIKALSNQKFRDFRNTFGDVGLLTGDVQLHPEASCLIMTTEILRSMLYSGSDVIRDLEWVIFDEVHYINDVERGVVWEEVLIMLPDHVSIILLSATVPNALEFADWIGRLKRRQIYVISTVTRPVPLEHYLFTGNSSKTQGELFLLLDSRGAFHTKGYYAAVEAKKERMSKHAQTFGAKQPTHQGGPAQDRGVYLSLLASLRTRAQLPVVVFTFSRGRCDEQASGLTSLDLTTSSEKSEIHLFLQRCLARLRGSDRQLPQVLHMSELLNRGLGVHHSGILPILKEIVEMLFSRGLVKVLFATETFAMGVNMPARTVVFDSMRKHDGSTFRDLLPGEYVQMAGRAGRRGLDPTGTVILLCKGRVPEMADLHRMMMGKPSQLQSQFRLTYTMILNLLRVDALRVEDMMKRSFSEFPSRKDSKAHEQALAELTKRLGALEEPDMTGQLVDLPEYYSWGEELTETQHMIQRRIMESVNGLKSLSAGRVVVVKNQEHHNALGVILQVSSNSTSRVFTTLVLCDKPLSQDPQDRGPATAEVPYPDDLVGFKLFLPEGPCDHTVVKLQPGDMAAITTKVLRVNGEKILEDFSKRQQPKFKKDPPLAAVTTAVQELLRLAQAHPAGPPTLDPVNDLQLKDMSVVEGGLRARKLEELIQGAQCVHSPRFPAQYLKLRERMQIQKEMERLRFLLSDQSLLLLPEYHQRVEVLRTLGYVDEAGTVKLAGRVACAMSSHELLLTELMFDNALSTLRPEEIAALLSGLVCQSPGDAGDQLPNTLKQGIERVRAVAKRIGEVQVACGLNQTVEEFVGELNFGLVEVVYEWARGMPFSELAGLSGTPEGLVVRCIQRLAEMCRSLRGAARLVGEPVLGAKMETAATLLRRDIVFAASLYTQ
UniProt Q9H0F6: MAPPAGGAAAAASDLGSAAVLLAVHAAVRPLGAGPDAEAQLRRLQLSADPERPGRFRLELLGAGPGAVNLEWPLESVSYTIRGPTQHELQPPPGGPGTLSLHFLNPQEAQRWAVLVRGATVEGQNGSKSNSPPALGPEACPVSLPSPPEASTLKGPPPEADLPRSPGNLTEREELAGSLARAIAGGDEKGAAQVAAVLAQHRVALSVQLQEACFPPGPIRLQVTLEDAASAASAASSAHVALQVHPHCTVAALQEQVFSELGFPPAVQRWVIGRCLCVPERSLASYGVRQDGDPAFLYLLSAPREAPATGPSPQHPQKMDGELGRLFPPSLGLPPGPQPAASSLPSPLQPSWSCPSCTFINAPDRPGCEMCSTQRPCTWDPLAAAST
UniProt Q8IYI0: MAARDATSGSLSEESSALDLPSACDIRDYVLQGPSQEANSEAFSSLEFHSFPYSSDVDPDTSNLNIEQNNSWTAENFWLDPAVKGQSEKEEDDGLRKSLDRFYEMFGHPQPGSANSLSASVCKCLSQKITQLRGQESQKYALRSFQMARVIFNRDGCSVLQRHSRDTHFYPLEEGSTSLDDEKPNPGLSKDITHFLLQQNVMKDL

[2] = compound: CN1CCc2c(c3ccccc3n2Cc2ccc(C(=O)NO)cc2)C1 [Tubastatin A]
Outline: as §1

[3] = compound: CNC(=O)C1=CC=CC=C1NC2=NC(=NC=C2Cl)NC3=C(C=C(C=C3)N4CCOCC4)OC
Outline: as §1

[4] = compound: CNC(=O)c1ccc(Nc2ncc(C(F)(F)F)c(NCc3nccnc3N(C)S(C)(=O)=O)n2)cc1 [defactinib]
Outline: as §1

[5] = compound: CNc1nc(-c2ccc3c(N)n[nH]c3c2)cc(N2C[C@@H](C(=O)NC3CCCCC3)CC[C@H]2C)n1
Outline: as §1

[6] = compound: COC(=O)N[C@@H](C)CNc1nccc(-c2cn(C(C)C)nc2-c2cc(Cl)cc(NS(C)(=O)=O)c2F)n1 [encorafenib]
Outline: as §1

[7] = compound: COC(=O)[C@H](CCSC)NC(=O)C1=C(C=C(C=C1)NC[C@H](CS)N)C2=CC=CC=C2
Outline: as §1

[8] = compound: COc1cc2nc(-c3cc(F)ccc3O)nc(N[C@@H]3CNC[C@H]3C(C)(C)O)c2cc1OC
Outline: as §1

[9] = compound: COc1cc(Nc2ncc3c(n2)-c2ccc(Cl)cc2C(c2c(F)cccc2OC)=NC3)ccc1C(=O)O [alisertib]
Outline: as §1

[10] = compound: COc1cc2ncnc(Nc3ccc(F)c(Cl)c3)c2cc1OCCCN1CCOCC1 [gefitinib]
Outline: as §1

Measured: log2 fold change

SKOR2 (UniProt Q2VWA4)
inactive: [1] -0.302 | [2] -0.021 | [3] -0.053 | [4] 0.011 | [5] 0.198 | [6] 0.022 | [7] 0.02 | [8] 0.123

SLC20A2 (UniProt Q08357)
inactive: [1] -0.001 | [2] -0.121 | [4] 0.032 | [5] -0.055 | [6] -0.021 | [7] -0.132 | [9] -0.137 | [8] 0.033 | [10] 0.203

SERAC1 (UniProt Q96JX3)
inactive: [1] 0.048 | [3] -0.024 | [5] 0.149 | [6] -0.051 | [7] -0.003 | [9] -0.412 | [10] -0.165

SESN1 isoform 2 (UniProt Q9Y6P5)
inactive: [1] -0.019 | [3] 0.046 | [6] -0.081 | [7] 0.133 | [8] -0.07

SIK2 (UniProt Q9H0K1)
inactive: [1] 0.007 | [2] 0.154 | [6] -0.085 | [7] 0.005 | [9] -0.084 | [10] 0.196

SERPINA7 (UniProt P05543)
inactive: [1] -0.053 | [4] 0.013 | [6] -0.015 | [7] 0.056

SIX5 (UniProt Q8N196)
inactive: [1] 0.159 | [2] 0.117 | [3] 0.015 | [5] 0.043 | [9] 0.023 | [8] 0.008 | [10] 0.13

SHB (UniProt Q15464)
inactive: [1] -0.139 | [2] -0.108 | [3] 0.169 | [5] 0.067 | [8] 0.034

SIPA1L1 (UniProt O43166)
inactive: [1] -0.082 | [2] 0.021 | [3] -0.081 | [4] 0.022 | [6] -0.052 | [7] 0.063 | [9] -0.001 | [8] 0.044 | [10] 0.05

SIX4 (UniProt Q9UIU6)
inactive: [1] -0.041 | [2] -0.188 | [3] -0.032 | [6] -0.046 | [7] 0.32 | [9] 0.031 | [8] -0.288 | [10] -0.119

SETD6 (UniProt Q8TBK2)
inactive: [2] -0.002 | [3] -0.016 | [5] -0.167 | [9] -0.155 | [10] 0.147

SIGIRR (UniProt Q6IA17)
inactive: [1] -0.094 | [4] -0.03 | [6] -0.002 | [7] -0.03 | [8] -0.002

SH2D3A (UniProt Q9BRG2)
inactive: [2] -0.113 | [9] -0.178 | [10] 0.042

SIAH1 isoform 2 (UniProt Q8IUQ4)
inactive: [2] 0.011 | [3] 0.008 | [9] 0.001 | [8] 0.002 | [10] -0.004

SERPINF2 (UniProt P08697)
inactive: [1] -0.009 | [4] -0.167 | [6] 0.034 | [7] 0.041

SLC19A2 (UniProt O60779)
inactive: [1] 0.059 | [5] 0.097 | [6] -0.007 | [7] 0.194 | [9] 0.025 | [8] 0.134 | [10] 0.156

SGSM3 isoform 2 (UniProt Q96HU1)
inactive: [2] 0.023 | [3] 0.105 | [9] 0.112 | [8] 0 | [10] -0.023

SFXN5 (UniProt Q8TD22)
inactive: [2] 0.009 | [3] 0.003 | [4] 0.067 | [5] 0.06 | [6] 0.022 | [7] 0.055 | [9] 0.001 | [8] -0.011 | [10] -0.062

SLC11A1, A0A0A0MTL3
inactive: [9] -0.085 | [8] 0.072 | [10] 0.068

SERPINA12 (UniProt Q8IW75)
inactive: [2] -0.002 | [3] -0.161 | [5] 0.087 | [9] 0.06 | [8] -0.348 | [10] 0.736

2 records drawn at random from those above, as already listed:
SERPINA7 (UniProt P05543)
inactive: [1] -0.053 | [4] 0.013 | [6] -0.015 | [7] 0.056

SH2D3A (UniProt Q9BRG2)
inactive: [2] -0.113 | [9] -0.178 | [10] 0.042

(continued)

SHMT1 (UniProt J3KRZ5)
inactive: [9] 0.08 | [10] -0.104

SLC12A6 isoform 2 (UniProt Q9UHW9)
inactive: [2] -0.013 | [3] -0.149 | [5] -0.008 | [6] 0.031 | [7] 0.075 | [8] -0.106

SLC16A3 (UniProt O15427)
inactive: [2] -0.151

SET isoform 3 (UniProt Q01105)
inactive: [1] -0.038 | [5] 0.2 | [6] 0.109 | [7] -0.169

SERPINB7 (UniProt O75635)
inactive: [2] -0.143

SHFL (UniProt Q9NUL5)
inactive: [2] 0.025 | [3] -0.062 | [4] 0.01 | [5] 0.026 | [6] 0 | [7] -0.037 | [9] -0.029 | [8] -0.003 | [10] 0.034

SIN3B (UniProt O75182)
inactive: [1] -0.463 | [4] 0.185 | [6] 0.12 | [7] 0.272 | [9] -0.064 | [10] 0.793

SF1 (UniProt H7C0N4)
inactive: [1] -0.071 | [4] 0.023 | [6] -0.001 | [7] 0.02 | [8] 0.263

SLC10A4 (UniProt Q96EP9)
inactive: [2] 0.031 | [3] 0.042 | [5] 0.06 | [8] 0.065

SKIV2L (UniProt Q15477)
inactive: [4] 0.162

SERPINH1 (UniProt E9PK86)
inactive: [9] -0.084 | [10] -0.05

SFT2D1 (UniProt Q8WV19)
inactive: [5] 0.077

SLAIN2 (UniProt D6RIF6)
inactive: [2] 0.286

SLC12A7 (UniProt Q9Y666)
inactive: [1] 0.144 | [8] 0.082

SH2B3 (UniProt Q9UQQ2)
inactive: [3] 0.045 | [4] 0.152 | [6] -0.067 | [7] -0.051

SESTD1 (UniProt Q86VW0)
inactive: [2] -0.184

SIRT3 (UniProt Q9NTG7)
inactive: [2] 0.077 | [3] 0.017 | [4] 0.054 | [5] 0.282 | [8] -0.017

SERBP1 isoform 3 (UniProt Q8NC51)
inactive: [2] 0.117 | [3] -0.078 | [5] -0.03 | [6] 0.091 | [7] -0.047 | [8] -0.007

SGO2 (UniProt Q562F6)
inactive: [2] 0.098 | [6] -0.093 | [7] 0.053

SGK3 (UniProt Q96BR1)
inactive: [2] 0.284 | [3] -0.011 | [4] -0.157 | [5] 0.126

SHARPIN (UniProt Q9H0F6)
inactive: [2] -0.145 | [3] 0.077 | [4] -0.013 | [5] 0.274 | [6] 0.08 | [7] -0.008 | [9] 0.014 | [8] -0.036 | [10] -0.035

SIMC1 (UniProt Q8NDZ2)
inactive: [1] -0.154 | [4] 0.04 | [6] -0.214 | [7] 0.217 | [9] -0.066 | [10] 0.054

SHLD1 (UniProt Q8IYI0)
inactive: [5] 0.398 | [6] -0.064 | [7] 0.118
